Data taken from PubChem BioAssay AID1345084, deposited by NCATS (2018).

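A panel of named gynecologic cancer cell lines (ovarian and cervical) is scored for viability by ATP-dependent luminescence after 48 hours of compound exposure.
Each compound was tested at five concentrations, including 0.46, 2.3 and 57.5 µM as the top dose.
The number is the fitted AC50 potency, and a lower value means stronger cell killing.
Calls follow an activity score built from curve class and fitted AC50: 40 to 100 is active, 1 to 39 is inconclusive, and 0 is inactive.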

Values are in nM.
Every entry below has the call inconclusive.
These entries are mostly ones the record files as inconclusive; other results of the assay are not listed here.
A potency from a partial, single-point or poor curve is only a rough figure.
Some entries filed as inconclusive have a full curve.
The first word of each remark tells which way the curve ran; it can be opposite to the aim of the assay.
Activity scores are not listed here.

- COC(C)(C)CCn1nc(Nc2c(C)cccc2C)c2cnc(Nc3ccc(OCCN4CCCC4)c(F)c3)nc21 [CASKI] | potency 19952 nM (cytotoxic, partial curve, poor fit)
- COC(C)(C)CCn1nc(Nc2c(C)cccc2C)c2cnc(Nc3ccc(OCCN4CCCC4)c(F)c3)nc21 [CAOV3] | potency 28183 nM (cytotoxic, partial curve, poor fit)
- COC(C)(C)CCn1nc(Nc2c(C)cccc2C)c2cnc(Nc3ccc(OCCN4CCCC4)c(F)c3)nc21 [C33A] | potency 39810 nM (cytotoxic, single point)
- COC(C)(C)CCn1nc(Nc2c(C)cccc2C)c2cnc(Nc3ccc(OCCN4CCCC4)c(F)c3)nc21 [HeLa] | potency 15848 nM (cytotoxic, partial curve)
- O=C(O)c1cc(Oc2ccc(C(F)(F)F)cc2Cl)ccc1[N+](=O)[O-] [JEG-3] | potency 39810 nM (rising, partial curve, poor fit)
- O=C(O)c1cc(Oc2ccc(C(F)(F)F)cc2Cl)ccc1[N+](=O)[O-] [Hek293T; control line for the selectivity index] | potency 5012 nM (rising, full curve, poor fit)
- CC1(C)CCC(c2ccc(Cl)cc2)=C(CN2CCN(c3ccc(C(=O)NS(=O)(=O)c4ccc(N[C@H](CCN5CCOCC5)CSc5ccccc5)c(S(=O)(=O)C(F)(F)F)c4)cc3)CC2)C1 [HeLa] | potency 28183 nM (cytotoxic, single point)
- CC1(C)CCC(c2ccc(Cl)cc2)=C(CN2CCN(c3ccc(C(=O)NS(=O)(=O)c4ccc(N[C@H](CCN5CCOCC5)CSc5ccccc5)c(S(=O)(=O)C(F)(F)F)c4)cc3)CC2)C1 [OV90] | potency 7943 nM (cytotoxic, full curve)
- CC1(C)CCC(c2ccc(Cl)cc2)=C(CN2CCN(c3ccc(C(=O)NS(=O)(=O)c4ccc(N[C@H](CCN5CCOCC5)CSc5ccccc5)c(S(=O)(=O)C(F)(F)F)c4)cc3)CC2)C1 [PA-1] | potency 39810 nM (cytotoxic, single point)
- CC1(C)CCC(c2ccc(Cl)cc2)=C(CN2CCN(c3ccc(C(=O)NS(=O)(=O)c4ccc(N[C@H](CCN5CCOCC5)CSc5ccccc5)c(S(=O)(=O)C(F)(F)F)c4)cc3)CC2)C1 [Hek293T; control line for the selectivity index] | potency 25118 nM (cytotoxic, single point)
- CCCC(C(=O)OCCN(CC)CC)(c1ccccc1)c1ccccc1 [HeLa] | potency 39810 nM (cytotoxic, single point)
- CCCC(C(=O)OCCN(CC)CC)(c1ccccc1)c1ccccc1 [C33A] | potency 39810 nM (cytotoxic, single point)
- CCCC(C(=O)OCCN(CC)CC)(c1ccccc1)c1ccccc1 [Es-2] | potency 25118 nM (cytotoxic, single point)
- CCS(=O)(=O)CCn1c([N+](=O)[O-])cnc1C [CASKI] | potency 3981 nM (rising, partial curve, poor fit)
- C=C[C@@]12COC(=O)C(=C)[C@@H]1[C@@H](O)[C@H](C(=C)C(=O)OC)[C@@H](O)C2 [Tov112D] | potency 5623 nM
- C=C[C@@]12COC(=O)C(=C)[C@@H]1[C@@H](O)[C@H](C(=C)C(=O)OC)[C@@H](O)C2 [PA-1] | potency 63.1 nM
- C=C[C@@]12COC(=O)C(=C)[C@@H]1[C@@H](O)[C@H](C(=C)C(=O)OC)[C@@H](O)C2 [Es-2] | potency 3981 nM

For reference, 2 entries once more:

{"compound": "COC(C)(C)CCn1nc(Nc2c(C)cccc2C)c2cnc(Nc3ccc(OCCN4CCCC4)c(F)c3)nc21", "tested on / at": "C33A", "potency (nM)": "39810", "curve as filed": "cytotoxic, single point"}
{"compound": "CC1(C)CCC(c2ccc(Cl)cc2)=C(CN2CCN(c3ccc(C(=O)NS(=O)(=O)c4ccc(N[C@H](CCN5CCOCC5)CSc5ccccc5)c(S(=O)(=O)C(F)(F)F)c4)cc3)CC2)C1", "tested on / at": "HeLa", "potency (nM)": "28183", "curve as filed": "cytotoxic, single point"}